Measurements published in doi:10.1101/2025.04.17.649455.

T1: BLTP2-1703-1901-GST (UniProt Q14667)
T1 sequence: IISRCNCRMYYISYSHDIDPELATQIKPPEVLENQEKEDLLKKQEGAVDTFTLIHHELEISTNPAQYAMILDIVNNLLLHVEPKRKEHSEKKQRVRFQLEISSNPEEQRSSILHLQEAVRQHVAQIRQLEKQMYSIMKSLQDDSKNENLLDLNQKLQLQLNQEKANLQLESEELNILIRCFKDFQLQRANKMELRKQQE


Columns and labels:
[1] = biological target: BLTP2-GFP (bridge-like lipid transfer protein 2) (UniProt Q14667); experiment: affinity purification with mass spectrometry
BLTP2-1703-1901-GST = biological target: T1, BLTP2-1703-1901-GST; experiment: affinity purification with mass spectrometry

| Binder | binding [1] | binding (BLTP2-1703-1901-GST) |
| --- | --- | --- |
| endogenous SCAMP3 (HEK293 cells) (protein, UniProt O14828 1-347) MAQSRDGGNPFAEPSELDNPFQDPAVIQHRPSRQYATLDVYNPFETREPPPAYEPPAPAPLPPPSAPSLQPSRKLSPTEPKNYGSYSTQASAAAATAELLKKQEELNRKAEELDRRERELQHAALGGTATRQNNWPPLPSFCPVQPCFFQDISMEIPQEFQKTVSTMYYLWMCSTLALLLNFLACLASFCVETNNGAGFGLSILWVLLFTPCSFVCWYRPMYKAFRSDSSFNFFVFFFIFFVQDVLFVLQAIGIPGWGFSGWISALVVPKGNTAVSVLMLLVALLFTGIAVLGIVMLKRIHSLYRRTGASFQKAQQEFAAGVFSNPAVRTAAANAAAGAAENAFRAP | binds |  |
| endogenous SCAMP3 (mouse kidney) (protein, UniProt O35609 1-349) MAQSRDTGNPFPDSGELDNPFQDPAVIQHRPSQQYATLDVYNPFENREPPPAYEPPAPAPAPLPPPSAPSVQSSRKLSPTEPRNYGSYSTQASAAAATAELLKKQEELNRKAEELDRRERELQHVALGGAGTRQNNWPPLPSFCPVKPCFFQDISMEIPQEFQKTVSTMYYLWMCSTLALLLNFFACLARFCVDTGSGSGFGLSMLWLLLFTPCSFVCWYRPMYKAFRSDSSFNFFVFFFIFFVQDVFFVLQAIGIPGWGFSGWVTALVVVGSKPAVAVLMLLVALLFTGIAVLGIVMLKRIHSLYRQTGASFQKAQQEFAAGVFSNPAVRTAAANAAAGAAENAFRAP |  | binds |

These are yes or no findings as the source states them, for the method shown. Binding seen in cells or lysates may run through a third protein. A yes stands for co-enrichment or nearness to the bait. Other partners may have been found. For some assays here: Tags and fused reporters may be left off the sequences shown.
